Source: PMC11347179
No constants are given. Whether binding was seen depends on the method and setting. For some assays here: Binding seen in cells or lysates may run through a third protein. Some binding calls cover weakened binding; strength is not graded here. Where a sequence is shown, tags or fusion partners need not be part of it.

T1: Tgs1 (trimethylguanosine synthase) fused to the GAL4 binding domain (S. pombe) (UniProt Q09814)
T1 sequence: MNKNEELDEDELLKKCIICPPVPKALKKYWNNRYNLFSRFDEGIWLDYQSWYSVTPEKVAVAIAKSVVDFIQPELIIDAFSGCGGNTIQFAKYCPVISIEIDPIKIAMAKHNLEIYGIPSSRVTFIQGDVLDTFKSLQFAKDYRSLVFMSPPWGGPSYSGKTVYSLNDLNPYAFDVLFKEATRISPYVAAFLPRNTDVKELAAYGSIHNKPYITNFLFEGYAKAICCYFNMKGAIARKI

T2: Mug174-GFP (S. pombe) (UniProt O74434)
T2 sequence: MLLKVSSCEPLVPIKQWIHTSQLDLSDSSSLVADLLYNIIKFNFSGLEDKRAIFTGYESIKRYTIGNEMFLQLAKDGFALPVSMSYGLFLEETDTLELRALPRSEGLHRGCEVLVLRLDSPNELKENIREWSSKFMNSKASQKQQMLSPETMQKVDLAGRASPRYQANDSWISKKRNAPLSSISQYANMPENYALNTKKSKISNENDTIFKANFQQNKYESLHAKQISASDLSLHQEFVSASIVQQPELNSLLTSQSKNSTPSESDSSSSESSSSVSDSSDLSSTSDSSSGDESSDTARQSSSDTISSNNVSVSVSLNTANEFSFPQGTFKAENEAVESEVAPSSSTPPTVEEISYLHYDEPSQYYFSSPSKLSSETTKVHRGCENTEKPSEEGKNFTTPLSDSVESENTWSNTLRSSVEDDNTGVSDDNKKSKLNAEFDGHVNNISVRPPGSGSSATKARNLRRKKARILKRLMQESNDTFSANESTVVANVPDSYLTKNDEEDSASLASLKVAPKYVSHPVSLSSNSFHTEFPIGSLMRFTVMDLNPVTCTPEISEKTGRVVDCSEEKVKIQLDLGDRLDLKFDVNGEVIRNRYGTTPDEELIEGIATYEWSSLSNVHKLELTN

B1: Mug174 (Meiosis-upregulated gene 174) fused to the GAL4 activation domain (protein, UniProt O74434 1-626)
chain: T2 sequence
B2: Tgs1-myc (enzyme, UniProt Q09814 1-239)
chain: T1 sequence

Assays:
[1] = biological target: T1, Tgs1 (trimethylguanosine synthase) fused to the GAL4 binding domain (S. pombe); assay: two-hybrid; GAL4 system in S. cerevisiae AH109; Mug174 on the GAL4 activation domain, Tgs1 on the GAL4 binding domain; growth on SD-Leu-Trp-His-Ade (most stringent), 30°C, 3 days
[2] = biological target: T2, Mug174-GFP (S. pombe); assay: co-IP; S. pombe lysate (10 mM Tris-HCl pH 7.5, 150 mM NaCl, 0.5 mM EDTA, 0.5% NP40, 2.5 mM MgCl2); anti-GFP beads, 4°C, 2 h; western blot with anti-GFP or anti-myc

Binder | binding [1] | binding [2]
B1 | binds | –
B2 | – | binds
